Results reported in patent US20020147151A1 (TRUSTEES OF BOSTON UNIVERSITY, published 2002).
Results are given in words; binding and its absence hold for the method and conditions named. In cells and extracts the contact can be indirect. Some entries that bind do so weakly or less than the wild type.

By UniProt entry, the sequences of proteins in these tests, tags left out. Residues count along the entry.
UniProt O54824, residues 1204-1322: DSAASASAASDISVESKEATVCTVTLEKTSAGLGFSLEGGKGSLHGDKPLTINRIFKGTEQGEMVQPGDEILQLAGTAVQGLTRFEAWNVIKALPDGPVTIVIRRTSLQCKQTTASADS

B1: peptide A (…, murine CD4 D4 aa 327-338) (peptide)
peptide: VSEEQKVVQVVA
B2: peptide B (…, murine CD4 D4 aa 341-352) (peptide)
peptide: TGLWQCLLSEGD

Biological target: 35S-labeled murine rIL-16 (in vitro transcription and translation product, C-terminal 119 amino acids) (mouse) (UniProt O54824)
Test: competition: peptide (10^-5 M) added to the pull-down of 35S-labeled rIL-16 on GST-D3D4 beads; the filing reads it as sequestering of IL-16

Row | Binder | binding
1 | B1 | binds
2 | B2 | binds
